Among all 53,000 sequences or so, about 3,700 (7%) were called active.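 The calls were made as follows: active = gene knockdowns whose robust z-score for IL-1 alpha signal is at least 2 or at most -2, so actives lie on both sides; inactive = the rest.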 Some of the results follow.
assay: Components of the Cytosolic LPS Sensing Pathway: Gene Identification via Genome-wide siRNA Screen; conditions: RAW264.7 macrophages, IL-1a HTRF, actives lie on both sides, screened at 100 nM (by protocol), cells primed 5 h with Pam3CSK4 first;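 also: robust z of the log signal after scaling to non-targeting control siRNA wells of the plate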
Summary of the method: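 Using IL-1a HTRF as read-out, the screen measured release from RAW264.7 cells after 48h siRNA knockdown (100 nM), 5 h Pam3CSK4 priming and 24 h cytosolic LipidA. Values were expressed relative to negative-control wells as robust z-scores.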

| Sequence | z-score |
| --- | --- |
| GGAAUUUUCCAACAUGGACTT against P4htm | inactive: -0.704 |
| CGCAAAAUAAAGAGGUGGCTT against Dhrs3 | inactive: 0.175 |
| GGAGUAUUUUCCUCUCUGUTT against Klhl31 | inactive: 0.448 |
| GGUUACUUUUAUCCUGAAUTT against Plaat1 | inactive: 0.552 |
| GGAAAGGAAGUAGAUAACUTT against Arcn1 | inactive: 0.162 |
| GGUGAACUGCUUAAACAAATT against Gstt2 | inactive: 1.5 |
| UUCUGAUGCCCUCCAUUUUTT against Psg19 | inactive: -0.612 |
| GGCCAAACAACUGGUGAAGTT against Nelfe | inactive: -0.832 |
| GGUAAUAAAGCAAUUGAGUTT against Mcm5 | inactive: -0.204 |
| GCUUGAUUUCUACGUUCAUTT against Slc15a2 | inactive: 1.44 |
| GGAAGCAGGAUCAGUUCGATT against Trrap | inactive: -1.4 |
| GGACUUGGAACACCAGUACTT against Pomt1 | inactive: -0.816 |
| GGCCCUGUGUUUAUCAAAGTT against Cntn3 | inactive: 0.814 |
| CCAAUCUCUGGCUAUAAAUTT against Teddm2 | inactive: -0.853 |
| CCAUUGGACACCUGACAGATT against Rasgef1c | inactive: -0.359 |
| GGAGAUUUAAACAGCUAGGTT against Gmip | inactive: -0.418 |
| GGCAUCCUUGAGCUUUAAATT against Nufip2 | inactive: -0.0213 |
| GCAUAAGGAUAUAGCAUUATT against Ctla4 | inactive: -0.72 |
| AGGAAUCCUCUAAAUGACCTT against Vmn1r174 | inactive: -0.58 |
| GGGCUUAAGGAGCACUGCATT against Tnxb | inactive: -0.874 |
| GCUGGGUUCAACAUUAUAGTT against Olfr160 | inactive: 1.11 |
| GCCUUCCUCCGUUAAUCCATT against Kank2 | inactive: 0.844 |

| Sequence | z-score |
| --- | --- |
| GGAUGACCUCAUGCUUAUUTT against Prss37 | active: -2.31 |
| GCAAGUAUGCCAUGAGAUUTT against Fam205c | inactive: -0.536 |
| GGUUAAAUACAAGUCACAATT against Slc16a12 | inactive: -0.443 |
| GGCCUCAAAGUGUGGUUGUTT against Rhob | inactive: 0.169 |
| GGGAUAGGAUUAAACAUAGTT against Hivep2 | inactive: -0.18 |
| CCUCCUGUACGAACACGCATT against Sars2 | inactive: -0.118 |
| GGCUAUGGAUGAACUGGUUTT against Zfp513 | inactive: -1.14 |
| GCUGUUUUGUCAGUCACAUTT against Olfr519 | inactive: -1.08 |
| GGCCCAAGCUCAACACAAUTT against Aida | active: 2.31 |
| CCCUUACAACUCAAGUAUCTT against Lrig3 | active: 2.1 |
| GGUCCGACUGUCAUGAAUGTT against Slc49a4 | inactive: -0.328 |
| GGAAGCUGAGAACCUAGCUTT against Retnlg | inactive: 1.03 |
| GGAUCACCCAUCAAAUAUATT against Oxct1 | inactive: -0.343 |
| GGUCACUGACAGGUACCAUTT against E130018O15Rik | inactive: 0.864 |
| GGCGGUAAAUCAAGUGGAATT against Abhd14b | inactive: 0.345 |
| GCCAGGGUAUUAAUGCCUCTT against Gpr183 | inactive: 0.0276 |
| GCGGACACUAAUGAACCUGTT against Tagln2 | inactive: 0.0454 |
| GGACUUCAUGAAGAACCUATT against Myo1g | inactive: -0.839 |
| GCGAUGUUAAUUCCUAUUATT against Nhlrc1 | inactive: -0.0266 |
| GGGUUUGAAGAGGUUUUCATT against Pbrm1 | inactive: 1.71 |
| GGCUAUGCUUCUUUCCUUUTT against Cfhr1 | inactive: 0.846 |
| GCCCUUUGAAGCCUUUGAGTT against Chchd5 | inactive: 0.812 |

| Sequence | z-score |
| --- | --- |
| GCAUACAUAGCACUACAUATT against Olfr536 | inactive: -0.513 |
| GGUGUACUCUGUUCCCAUGTT against Psmb6 | inactive: -1.54 |
| GGACAAGAAACAGCUGUCATT against Stbd1 | inactive: -1.78 |
| GCCUAUCAUUAACAAGUCATT against A430033K04Rik | inactive: -0.375 |
| GGAUUUGAGGUUCAUAUAATT against Cdk20 | active: -2.48 |
| GGGAAGAUCAUUGUUUAUATT against Cpq | inactive: 1.8 |
| GGGCUUUGAUCGACGGAUUTT against Clvs1 | inactive: 0.587 |
| GCCAGUUUGUGUGCAAAAATT against Lrp1 | inactive: -0.551 |
| CCAGAUAACAUUAGAACUATT against Ybx1 | inactive: 1.35 |
| GGCAUAUGUGCAAAUAAAATT against Rtp3 | inactive: -1.44 |
| GGUUAAUUCCUUCAUUGCCTT against Gpr1 | inactive: 1.7 |
| GGCCUAUGCGAAAAUCUGUTT against Camk2b | inactive: -1.14 |
| GCAAUCAUUUUAGCAUGUGTT against Tas2r129 | inactive: -0.248 |
| GGACACAGAGAAAAAAAAATT against Apeh | inactive: -0.624 |
| GCCACCUCUUAUGAGGCUUTT against Lrrc41 | inactive: 0.281 |
| GCACACAAGUCUCUGAAUUTT against Ipo7 | inactive: -0.328 |
| GGGAAUGGUUUCUUGAAAUTT against Pigk | inactive: 0.36 |
| GGAUUUGUGCACGUGAUCUTT against Adam5 | inactive: -1.78 |
| GGAAUCAACUUCAUGGUCUTT against Mrpl18 | inactive: 0.0907 |
| GGAAUACAGCCCUAACCUCTT against Efnb3 | inactive: 0.665 |
| GGAAACUUACCACUACUAUTT against Tm9sf1 | inactive: 1.2 |
| GCUGAUCCUAGGUUCAGAATT against Acd | inactive: -0.449 |

| Sequence | z-score |
| --- | --- |
| CCACGGUUAUGAUGACGACTT against Dyrk1b | inactive: 1.89 |
| GGCCUAUUCAAUGGCGUGATT against Hapln3 | inactive: -0.839 |
| GGCUAUUUCAGGUUCAAGATT against Tnfrsf9 | inactive: -0.811 |
| UUUUGUUCUCAAAGGAAUATT against Olfr194 | inactive: 0.964 |
| CCUGCUGUUGAGCUUCACATT against Adra1b | inactive: -1.34 |
| CCUAAGAUGAUCGUAGGCUTT against Olfr1221 | inactive: -0.643 |
| CCAGUCGUAGUGAAUUUGUTT against Ajm1 | inactive: -0.76 |
| CCUAUGUGAAAAAAACUGCTT against Olfr1026 | inactive: -0.747 |
| GGAUGAGCUGAGGAAAUCCTT against Psd2 | inactive: -0.535 |
| GGGUCAGUGAAAAGAUCAGTT against Olfr433 | inactive: 0.749 |
| CGCAAGAAUCUCCUUUAAUTT against Zfp760 | inactive: 0.0651 |
| GGACUAUUCUGAGAAUCCCTT against Olfr821 | inactive: -1.69 |
| GAGAAACUAUGGCUGAAAATT against Klk1 | inactive: 0.439 |
| GGAAGGUGGCAAGGUAUCUTT against Rab11fip3 | inactive: 0.203 |
| GGGAAUAUUAGAAACCCUATT against Camkk1 | inactive: 0.76 |
| GGAUCAAUCCACAGACGACTT against Dbr1 | inactive: 1.56 |
| GCCGUAUUCAUUAAUAAAGTT against Ash1l | inactive: 0.0753 |
| GCUGAAAUACCACUCUCCGTT against Chl1 | inactive: -1 |
| CCCUAGACCAGUAAAUACCTT against Mymk | inactive: -0.649 |
| GGGCUUUGAAUACAUCCUGTT against Prelid1 | inactive: 0.0746 |
| CCUAGUACUUCGAAGAAAGTT against Tmem255a | active: -2.62 |
| CGAUAUUGGUGGAUUCUUUTT against Cntnap1 | inactive: 0.836 |

For convenience, part of the list above:

| Sequence | z-score |
| --- | --- |
| GGGCUUUGAUCGACGGAUUTT against Clvs1 | inactive: 0.587 |
| GCCAGUUUGUGUGCAAAAATT against Lrp1 | inactive: -0.551 |
| CCAGAUAACAUUAGAACUATT against Ybx1 | inactive: 1.35 |
| GGCAUAUGUGCAAAUAAAATT against Rtp3 | inactive: -1.44 |
| GGUUAAUUCCUUCAUUGCCTT against Gpr1 | inactive: 1.7 |
| GGCCUAUGCGAAAAUCUGUTT against Camk2b | inactive: -1.14 |
| GCAAUCAUUUUAGCAUGUGTT against Tas2r129 | inactive: -0.248 |
| GGACACAGAGAAAAAAAAATT against Apeh | inactive: -0.624 |
| GCCACCUCUUAUGAGGCUUTT against Lrrc41 | inactive: 0.281 |
| GCACACAAGUCUCUGAAUUTT against Ipo7 | inactive: -0.328 |
| GGGAAUGGUUUCUUGAAAUTT against Pigk | inactive: 0.36 |
| GGAUUUGUGCACGUGAUCUTT against Adam5 | inactive: -1.78 |
| GGAAUCAACUUCAUGGUCUTT against Mrpl18 | inactive: 0.0907 |
| GGAAUACAGCCCUAACCUCTT against Efnb3 | inactive: 0.665 |
| GGAAACUUACCACUACUAUTT against Tm9sf1 | inactive: 1.2 |
| GCUGAUCCUAGGUUCAGAATT against Acd | inactive: -0.449 |
| CCACGGUUAUGAUGACGACTT against Dyrk1b | inactive: 1.89 |
| GGCCUAUUCAAUGGCGUGATT against Hapln3 | inactive: -0.839 |
| GGCUAUUUCAGGUUCAAGATT against Tnfrsf9 | inactive: -0.811 |
| UUUUGUUCUCAAAGGAAUATT against Olfr194 | inactive: 0.964 |
| CCUGCUGUUGAGCUUCACATT against Adra1b | inactive: -1.34 |
| CCUAAGAUGAUCGUAGGCUTT against Olfr1221 | inactive: -0.643 |
| CCAGUCGUAGUGAAUUUGUTT against Ajm1 | inactive: -0.76 |
| CCUAUGUGAAAAAAACUGCTT against Olfr1026 | inactive: -0.747 |
| GGAUGAGCUGAGGAAAUCCTT against Psd2 | inactive: -0.535 |
| GGGUCAGUGAAAAGAUCAGTT against Olfr433 | inactive: 0.749 |

Going on with the list:

| Sequence | z-score |
| --- | --- |
| GCAACCAGAAAUUAGAACATT against 3830403N18Rik | inactive: -0.123 |
| GGUACUCAUUUGUUACCAGTT against Gpr45 | inactive: 1.27 |
| GGCCAUGGUUGAGUUUGCUTT against Nsmce2 | inactive: -1.66 |
| GGAGCAUUUAAAAGUUCCATT against Fam81a | inactive: 1.38 |
| GGAGAGUUCACACAGACUGTT against Whrn | inactive: -0.441 |
| CCUUCAUUUAUUCUACGAGTT against Zfp791 | inactive: 0.344 |
| GGAAAUAUCUCUGGUAAUATT against Reln | active: -2.17 |
| CGGUGUCGAAGGUUUGGAUTT against Mtarc2 | inactive: 0.0068 |
| GCAGUCAUACAGAUUUUGGTT against Slc15a4 | inactive: 0.325 |
| GGCCAUUCAGAUCUUAACCTT against Hadh | inactive: 0.418 |
| GGAGGUACAUCAAAUGGUGTT against Ankk1 | inactive: 1.57 |
| CGGUCAAAUGUUGGAAGAUTT against Trappc3 | inactive: -0.42 |
| UGUCAGCGAGGAAUAACCCTT against Olfr503 | inactive: -0.944 |
| GGACAUCGUAGAGAAAGUUTT against Msi1 | inactive: -1.44 |
| CGGGUUCUACUAUCAUGCATT against Ltbp4 | inactive: 0.259 |
| GCCAGACAAGCCUCAUUGATT against Ncapd2 | active: -2.2 |
| CGCCAUGCUUAGAUUUAAATT against Mettl6 | inactive: 0.348 |
| GGAAGGAAAAGGAUAAAAGTT against Fbxo43 | inactive: 0.148 |
| GGUGAUCAUUCUGGCAGCUTT against Olfr1215 | inactive: 0.654 |
